PubChem BioAssay AID504648 (National Center for Advancing Translational Sciences (NCATS), 2011)
The whole screen tested about 390,000 compounds, of which about 610 (0.16%) were called active. Inconclusive means that the source gave no clear call. Such entries were picked first, then a sample of the others. The call rests on the fitted dose curve; in most records, active means well fitted inhibition curve with a large enough effect; inconclusive means small, poorly fitted or top-dose-only effect, or effect the other way, or another doubt; inactive means no such curve, though single readings can be large or run the other way. Potencies of inconclusive entries are doubtful fits and often do not repeat.

Assay: Nrf2 qHTS screen for inhibitors: counterscreen for cytotoxicity
Details: A549 ARE-Fluc cells, CellTiter-Fluor viability, 18-24 h; series mostly up to 46 µM; activity change, negative = cytotoxicity: at the top concentration
In short: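 Cytotoxicity counterscreen: CellTiter-Fluor fluorescence was measured in A549 ARE_Fluc cells after 18-24 h of compound exposure in a concentration series. The subsequent BugLite luminescent read reports ARE-luciferase activity.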
On the % scale 0 is the no-effect control and ±100 the full control effect; potency means the concentration at half of the fitted maximal effect.

| Compound | Potency | activity change, negative = cytotoxicity |
| --- | --- | --- |
| Cn1c(O)c(C(=Nc2ccccc2)SCc2ccccc2Cl)c(=O)n(C)c1=O | inconclusive: 25.9 µM [falling, single point] |  |
| COc1ccccc1N=Nc1c(O)[nH]c(=S)[nH]c1=O | inconclusive: 29.1 µM [falling, single point] |  |
| O=C(Nc1ccc2c(c1)OCCO2)c1cccn(Cc2cccc([N+](=O)[O-])c2)c1=O | inconclusive: 25.9 µM [falling, partial curve, poor fit] |  |
| Cc1c(-c2cccc(Cl)c2)nc2ccccc2c1C(=O)N1CCC2(CC1)OCCO2 |  | inactive: -14.4% |
| COC(=O)C1=C(c2ccc(F)cc2OCc2ccccc2)C[C@@H]2CC[C@H]1N2C(=O)NCc1ccccc1OC |  | inactive: -15.2% |
| O=C1NC(=O)C2(Cc3c(nc4ccccn4c3=O)N3CCCCCC32)C(=O)N1Cc1ccccc1 (centres undefined) | inconclusive: 32.6 µM [falling, partial curve, poor fit] |  |
| CCOP(=O)(CCP(=O)(OCC)OCC)OCC.C[CH2][Sn]([Cl])([Cl])[CH2]C | active: 16.4 µM |  |
| CC12CCC3C(CCC4(O)CC(O)CCC34C=NO)C1(O)CCC2C1=COC(=O)C1 (centres undefined) | inconclusive: 0.291 µM [falling, full curve] |  |
| OC(COCc1ccc(Cl)cc1)CN1CC=C(c2ccccc2)CC1 (centres undefined) | inactive |  |
| COC(=O)C1=C(c2ccccc2OCc2ccccc2)C[C@@H]2CC[C@H]1N2C(=O)NCc1ccc(F)cc1 | inconclusive: 29.1 µM [falling, partial curve, poor fit] |  |
| COc1cc2cc(C(=O)N3CC(COS(C)(=O)=O)c4ccc(O)cc43)[nH]c2c(OC)c1OC (centres undefined) | inconclusive: 3.66 µM [falling, partial curve, poor fit] |  |
| C=CCN1C(=O)/C(=C/c2ccc(Br)s2)C(=O)NC1=S |  | inactive: -4.6% |
| CC1=CC(=Cc2sc3ccccc3[n+]2C)C=C(C)O1 | active: 2.59 µM |  |
| O=C(Nc1ccccc1)c1cc([N+](=O)[O-])ccc1N1CCNCC1 |  | inactive: -5.56% |
| Cn1c(=O)n(C)c2cc(CNCCc3ccccc3)ccc21 |  | inactive: -8.98% |
| CN1CCN(c2ccc([N+](=O)[O-])c(N/N=C3\CN4CCC3CC4)c2)CC1 | active: 20.6 µM |  |
| Cn1cc(C=C(C#N)C#N)c2ccccc21 |  | inactive: -16.4% |
| COc1cc(/C=C2\C[C@H]3[C@@H]4CC=C5C[C@@H](N6CCCC6)CC[C@]5(C)[C@H]4CC[C@]3(C)[C@H]2O)cc(OC)c1OC | inconclusive: 32.6 µM [falling, partial curve, poor fit] |  |
| Cc1cc(OCC(=O)N[C@@H](Cc2ccccc2)C(=O)O)c2c3c(c(=O)oc2c1)CCCC3 |  | inactive: 6.48% |

Rewritten in CSV form: part of the list above
Compound,Potency,"activity change, negative = cytotoxicity"
CC12CCC3C(CCC4(O)CC(O)CCC34C=NO)C1(O)CCC2C1=COC(=O)C1 (centres undefined),"inconclusive: 0.291 µM [falling, full curve]",
OC(COCc1ccc(Cl)cc1)CN1CC=C(c2ccccc2)CC1 (centres undefined),inactive,
